# Source: PubChem BioAssay AID1347431 (National Center for Advancing Translational Sciences (NCATS), 2020)
# Out of some 1,200 compounds screened, fewer than 10 were called active. Calls follow the shape of the dose curve; as a rule, active = well fitted curve in the direction sought with a large enough effect; inconclusive = small, poorly fitted or top-dose-only effect, or another doubt; inactive = no such curve, though single readings can be large or run the other way. The list shows a part of the results.
# Test: Confirmatory qHTS assay for inhibitors of Activation Induced Cytidine Deaminase (AID): UDG signals; also: 0% is about no effect
# Conditions: UDG coupled enzyme activity counter-screen; at 115 µM (top of the series) unless noted
# From the text: Assay Provider (PI) Patricia Gearhart Ph.D.
# National Institute on Aging
# National Institute of Health (NIH), Bethesda, MD
# Assay Provider (PI) Rahul Kohli Ph.D.
# Perelman School of Medicine
# University of Pennsylvania, Philadelphia, PA
# Activation-Induced Deaminase (AID) is a cytosine deaminase which converts cytosine into uracil within stretches of ssDNA. The presence of uracil in DNA initiates a cascade of mutagenic DNA repair to introduce point mutations and DNA double strand breaks. Specific targeting of AID to the immunoglobulin heavy chain loci (Igh) promotes mutagenesis in the antibody variable region for somatic hypermutation (SHM) or switch regions leading to class switch recombination (CSR). However, AID also plays a role in accumulating unnecessary mutations across the genome. Mis-targeting of AID results in the initiation of tumor development and leads to greater drug resistance among cancer cells when continually expressed. To identify an AID inhibitor, a small molecule library will be screened in collaboration with NCATS core facility at NIH. To confirm biological function, inhibitors will be examined in an in vitro murine B-cell activation assay and subsequent secondary validation screens. Top molecules will be further screened to identify inhibitory efficacy against a wild type primary splenocytes assay. Using these approaches, we hope to identify a small molecule with great efficacy and low toxicity for use as a molecular probe to further characterize AID's intricacies, or even as a therapeutic.
# A FRET based analysis of cytosine deamination, was developed to identify potential inhibitors of AID catalytic activity. This screen has two signal output, Read 1 evaluates the AID inhibition response. The second readout (Read 2) evaluates UDG response and is uses as a counterscreen to exclude false positive inhibitors. Inhibition in AID and inactivity in the UDG signal is the desired outcome for this assay.
# SEQUENCE No. (e.g., 1, 2, 3, etc.); […] (e.g., Cells, Incubation, Reagent, etc.); VALUE; DESCRIPTION
# 1a; Reagent; 3 uL; [4/3x] 1 uM AID/2.67 U/mL UDG
# 1b; Reagent; 3 uL; 2 U/mL UDG
# 1c; Reagent; 3 uL; 1 uM AID
# 2a; Compound; 46 nL; Follow-up plates (0.64 uM - 10 mM)
# 2b; Control; 46 nL; ATA ([…] - 10 mM)
# 3; Time; 10 min; incubation at room temperature
# 5; Time; 4 hr; incubation at room temperature
# 6; Reagent; 4 uL; [2x] 250 mM NaOH
# 7; Time; 15 sec; centrifuge at 1000 rpm
# 8; Time; 30 min; incubation at room temperature
# 9a; Detection; fluorescence (Read 1: AID); EnVision (PerkinElmer) plate reader, 540 excitation and 590 emission filters
# 9b; Detection; fluorescence (Read 2: UDG); EnVision (PerkinElmer) plate reader, 560 excitation and 665 emission filters
# NOTES (numbers refer to sequence above)
# 1a; Reagents were dispensed in a medium-binding black solid-bottom Greiner plates (789176F) using a BioRptr liquid dispenser. Dispense 3 uL of [4/3x] 1 uM AID (provided by Kohli lab) and [4/3x] 2 U/mL UDG (NEB M0280L) into columns 1, 2, 5 to 48.
# 1b; Dispense 3 uL of [4/3x] 2 U/mL UDG into column 3.
# 1c; Dispense 3 uL of [4/3x] 1 uM AID into column 4.
# 2a; Compound (7-points [uM]: 0.64; 3.2; 16; 80; 400; 2,000; 10,000; […]) double pin-transferred (Dip Factor = 2) using the Kalypsys (Wako USA) pintool equipped with a 1536 pinhead for a final concentration range of 7.32 nM - 114 uM.
# 2b; 10 mM Aurintricarboxylic Acid (Sigma A1895) (ATA, 8-point, n = 2, 1:2.5 dilution in column 2) double pin-transferred (Dip Factor = 2) using the Kalypsys (Wako USA) pintool equipped with a 1536 pinhead for a [final] range of 186 nM - 114 uM.
# 3; Room temperature incubation.
# 4; Dispense 1 uL of substrate mixture from the Kohli lab [4x] […] DJC20 and [4x] 250 nM DJC23 into columns 1 to 48 .
# 5; Room temperature incubation.
# 6; Dispense 4 uL of substrate mixture [2x] 250 mM NaOH into columns 1 to 48.
# 7; Centrifugation step to remove bubbles.
# 8; Room temperature incubation
# 9a; Fluorescence signal (column label AID) was read using the EnVision plate reader. […]
row,Compound,"activity change, negative = inhibition"
1,CCOc1ccc2nc(Cl)c(C3CC(c4ccc(C)cc4)=NN3C(=O)CCC(=O)O)cc2c1 (stereo not given),inactive: 4.17%
2,COc1ccc(-n2nc3c(N4CCC(C(=O)N5CCC(C)CC5)CC4)nnc(C)c3c2C)cc1,inactive: 8.91%
3,Cc1ccc(Cl)cc1N1CCN(C(=O)c2ccc3c(Cl)c4c(nc3c2)CCCC4)CC1,inactive: 11.4%
4,COc1cccc(-c2nc(CS(=O)(=O)CC(=O)N3CCN(c4ccccc4)CC3)c(C)o2)c1,inactive: -3.04%
5,O=S(=O)(NCCc1nnc2ccc(SCc3ccccc3Cl)nn12)c1ccccc1,inactive: -3.37%
6,CCc1ccc(OCC(=O)N(Cc2ccc(C(C)C)cc2)C2CCS(=O)(=O)C2)cc1 (stereo not given),inactive: -3.87%
7,O=C(CSc1nnc(-c2ccccc2Cl)o1)N1CCCc2ccccc21,inactive: -3.12%
8,Cc1ccc(Cn2c(SCc3ccc(C(=O)N4CCCCCC4)cc3)nc3ccncc32)cc1,inactive: 2.48%
9,CCCCCSc1nc2sc3c(c2c(=O)n1-c1ccccc1)CCN(C(C)=O)C3,inactive: -5.51%
10,COc1cc(C(c2c(C)[nH][nH]c2=O)c2c(C)[nH][nH]c2=O)ccc1OC(=O)c1cccc(C)c1,inactive: -10.8%
11,COc1ccc(Cn2cc(C(=O)c3ccc(C)cc3)c(=O)c3cc(OC)c(OC)cc32)cc1,inactive: -9.13%
12,COc1ccc(S(=O)(=O)N(CC(=O)Nc2cccc(C(F)(F)F)c2)c2ccc(C)cc2)cc1,inactive: -15.6%
13,CCOC(=O)C1=C(CN2CCN(c3ccccc3F)CC2)NC(=O)NC1c1ccc(Cl)cc1 (stereo not given),inactive: -10.4%
14,CCN(C(=O)c1cc2cc3ccc(OC)cc3nc2o1)c1cccc(C)c1,inactive: -18.5%
15,O=C(CSc1nc2ccccc2nc1Cc1ccccc1)Nc1ccccc1C(F)(F)F,inactive: -4%
16,CCc1nn(CCCC(=O)NCc2cc(Br)ccc2OC)c(=O)c2cc3occc3n12,inactive: 4.28%
17,CCOCCCn1c(=N)c(C(=O)NC(C)c2ccccc2)cc2c(=O)n3cccc(C)c3nc21 (stereo not given),inactive: -12.7%
18,CN(C(=O)c1ccc2c(c1)N(Cc1ccc(F)cc1)C(=O)c1ccccc1S2(=O)=O)C1CCCCC1,inactive: -12.6%
19,Cc1cccc(N2CCN(C(=O)c3cccn3-c3nnc(N4CCCCC4)s3)CC2)c1C,inactive: -2.85%
20,Cc1ccc(Cl)cc1N1CCN(C(=O)c2nn(C)c3c2CS(=O)(=O)c2ccccc2-3)CC1,inactive: -8.81%
21,CCOc1ccc(S(=O)(=O)c2c(C(=O)c3ccc(C)c(C)c3)cnc3ccccc23)cc1,inactive: -3.6%
22,CCc1ccc2oc(C(=O)NCC(c3ccc(Cl)cc3)N3CCOCC3)c(C)c2c1 (stereo not given),inactive: -10.8%
23,Cc1cccc(N2CCN(C(=O)c3sc4nc5n(c(=O)c4c3C)CCC5)CC2C)c1 (stereo not given),inactive: 1.75%
24,Cc1oc(-c2ccccc2Cl)nc1CS(=O)CC(=O)N1CCN(c2cccc(C(F)(F)F)c2)CC1 (stereo not given),inactive: 1.61%
25,CCCc1cnc2c(c1SCc1cccc(C)c1)c(=O)n(C)c(=O)n2C,inactive: -1.25%
26,CCOC(=O)c1ccc(-n2c(N)c(C(=O)OC)c3nc4ccccc4nc32)cc1,inactive: -1.19%
27,O=C(Nc1cccc(Cl)c1)c1c(NC(=O)C(F)(F)F)sc2c1CCCC2,inactive: 1.29%

row,Compound,"activity change, negative = inhibition"
1,CCOC(=O)c1c(C)n(-c2ccccc2)c2ccc(OC(=O)c3ccccc3NC(=O)C(C)(C)C)cc12,inactive: 6.08%
2,Cc1ccc(N(Cc2cccs2)C(=O)COc2cccc(C)c2)cc1,inactive: -7.85%
3,CCn1cc2nc(SCc3ccc(F)cc3)n(CCc3ccccc3)c(=O)c2n1,inactive: -5.53%
4,COCCCNC(=O)c1oc2c(c1C)-c1nn(Cc3ccccc3Cl)cc1CC2,inactive: -4.93%
5,CCC1=Nc2cc(C(=O)NCCCOC)ccc2Sc2ccc(Br)cc21,inactive: -0.0759%
6,Cc1ccc(-n2ncc(C(=O)NCc3ccc4c(c3)OCO4)c2C2CCN(C(=O)OC(C)(C)C)CC2)c(C)c1,inactive: -8.77%
7,CN1CCN(C(=O)c2ccc3c(c2)N(Cc2ccc(C(F)(F)F)cc2)C(=O)c2ccccc2S3)CC1,inactive: -7.78%
8,Cc1cc(C)cc(N2C(=O)CSC23C(=O)N(Cc2c(F)cccc2Cl)c2ccccc23)c1 (stereo not given),inactive: -2.08%
9,Cc1ccc(C)c(CN2C(=O)c3ccccc3S(=O)c3ccc(C(=O)N4CCCCC4)cc32)c1 (stereo not given),inactive: -10.3%
10,O=C(NCCn1cc(SCc2ccc(C(F)(F)F)cc2)c2ccccc21)c1cccs1,inactive: -12.3%
11,Cc1cccc(OC(C)C(=O)N2CCC(c3nc4ccccc4o3)CC2)c1C (stereo not given),inactive: -9.18%
12,COc1ccc(NCc2nc3ccccc3n2CCOc2ccccc2C)cc1,inactive: -1.79%
13,COc1ccc(C(CNC(=O)COc2cc(C)c(Cl)c(C)c2)N2CCCCC2)cc1 (stereo not given),inactive: 8.19%
14,CCN(CC)CCNC(=O)c1ccc2c(c1)sc1nc(-c3ccc(F)cc3)cn12,inactive: 10%
15,Cc1ccc(CNC(=O)c2ccc3c(c2)nc(C)n3-c2cc(C)cc(C)c2)cc1,inactive: -8.08%
16,CCC1CCCCN1CCCNC(=O)c1cc2c(Cl)nc3ccccc3c2s1 (stereo not given),inactive: -3.88%
17,CCCCN(CCCC)CC(O)Cn1cc(/C=C/C(=O)c2ccccc2)c2ccccc21 (stereo not given),inactive: -1.73%
18,Brc1c(Br)c(Br)c2n[nH]nc2c1Br,inactive: 3%
19,Cc1cc2ccccc2n1-c1ccc(C(=O)N2CCCCC2)s1,inactive: -2.21%
20,Cc1ccccc1CSc1nc2nc(C)c(Cc3ccccc3)c(C)n2n1,inactive: -8.79%
21,Cc1ccc2onc(CC(=O)N3CCN(c4cc(Cl)ccc4C)CC3)c2c1,inactive: -3.38%
22,CCc1ccc(-n2c(=O)c3c4c(sc3n(CC(=O)N3CCCCC3CC)c2=O)CCC4)cc1 (stereo not given),inactive: -7.42%
23,CCc1ccccc1-n1c(C)nc2cc(C(=O)NCCc3ccc(Cl)cc3)ccc21,inactive: -15.8%
24,Cc1nc2nc(SCC(=O)NC3CCCCC3)nn2c(C)c1Cc1ccccc1Cl,inactive: -1.05%
25,CN(C)c1ccc(CN(Cc2ccco2)C(=O)c2ccc(C(C)(C)C)cc2)cc1,inactive: -10.2%
26,CCOC(=O)c1ccc(N2C(=O)c3[nH]nc(-c4ccccc4)c3C2c2ccc(CC)cc2)cc1 (stereo not given),inactive: -4.52%
27,CC(C)(C)OC(=O)N1CCC(c2c(C(=O)NCc3cccc(Cl)c3)cnn2-c2ccc(F)cc2)CC1,inactive: -13.1%

row,Compound,"activity change, negative = inhibition"
1,CCc1ccc(C(=O)c2cn(CC(=O)Nc3cccc(OC)c3)c3ccc(OC)cc3c2=O)cc1,inactive: 1.76%
2,CCCCOc1ccc(-c2nn(-c3ccccc3)cc2C2NC(=O)NC(C)=C2C(=O)OCC)cc1 (stereo not given),inactive: -17.2%
3,Cc1cccc(N2C(=O)N(CC(=O)C(C)(C)C)c3ccccc3S2(=O)=O)c1C,inactive: 2.18%
4,Cc1cc2nnc(SCc3ccc(F)cc3)n2c2ccccc12,inactive: 0.488%
5,CCOc1ccc(C(=O)c2cn(CC(=O)Nc3ccc(OC)cc3)c3cc4c(cc3c2=O)OCCO4)cc1,inactive: -3.24%
6,CCOc1ccc(C(=O)/C=C/c2cn(CC(O)CN3CCCCCC3)c3ccccc23)cc1 (stereo not given),inactive: -4.79%
7,COc1cccc(CNC(=O)Cn2c(=O)ccc3cc(S(=O)(=O)N4CCC(C)CC4)ccc32)c1,inactive: -4.92%
8,CCOc1ccc(CCNc2ncnc3onc(-c4ccc(Cl)cc4)c23)cc1OCC,inactive: -4.41%
9,O=C(CCS(=O)(=O)c1nc(-c2cccs2)cc(C(F)(F)F)n1)Nc1ccc(OC(F)(F)F)cc1,inactive: 0.452%
10,CCOC(=O)C1CCN(c2nc3c(S(=O)(=O)c4ccccc4)nnn3c3ccsc23)CC1,inactive: 7.1%
11,CCOc1ccccc1NC(=O)CSc1nc2ccccc2c2nc(CCn3cncc3C)nn12,inactive: 0.873%
12,COc1ccc(OCCn2c(C3CC(=O)N(c4ccc(F)cc4)C3)nc3ccccc32)cc1 (stereo not given),inactive: 0.474%
13,Cc1cc(C)cc(OCC(=O)NCC(c2ccc(Cl)cc2)N2CCCCC2)c1 (stereo not given),inactive: -1.03%
14,CCc1ccc(CN(Cc2ccco2)C(=O)c2ccccc2Cl)cc1,inactive: -8.01%
15,Cc1cccc(Cn2c(SCc3ccc(C(=O)N4CCCCCC4)cc3)nc3ccncc32)c1,inactive: 1.99%
16,COc1cccc(Cn2cc(C(=O)c3ccccc3)c(=O)c3cc4c(cc32)OCO4)c1,inactive: 1.86%
17,COc1ccc(OC)c(NC(=O)Cn2c(=O)cc(-c3ccccc3)c3c(C)nn(C)c32)c1,inactive: 7.45%
18,Cc1cccc(N2CCN(C(=O)CS(=O)(=O)Cc3nc(-c4ccccc4C)oc3C)CC2C)c1 (stereo not given),inactive: -0.78%
19,Cc1nc2c(C(=O)NC(C)c3ccccc3)cnn2c(C)c1Cc1ccccc1 (stereo not given),inactive: -7.29%
20,CCn1cc(C(=O)NCc2ccccc2)c(=O)c2cc(S(=O)(=O)N3CCCCCC3)ccc21,inactive: -12.6%
21,N#C/C(=C\c1ccc(-c2cc(Cl)ccc2Cl)o1)C(=O)Nc1ccccc1C(=O)O,inactive: 5.36%
22,CCN1CCN(CCCNC(=O)c2ccc3c(c2)sc2nc(-c4ccc(OC)cc4)cn23)CC1,inactive: -0.0337%
23,COc1cc(/C=C(\C#N)C(=O)Nc2nnc(C(F)(F)F)s2)ccc1OCc1ccc(C(F)(F)F)cc1C(F)(F)F,inactive: -7.34%
24,CCn1c(SCc2ccccc2F)nc(=O)c2c(C(=O)OC)cc(C3CC3)nc21,inactive: 5.62%
25,Cc1cc(C)c(NC(=O)CSc2ncc(S(=O)(=O)c3ccc(C(C)(C)C)cc3)c(=O)[nH]2)c(C)c1,inactive: 7%
26,Cc1ccc(Cl)cc1NC(=O)CSc1nc(C)c(C)c(C)c1C#N,inactive: 2.55%
